These are yes or no findings as the source states them, for the method shown. In cells and extracts the contact can be indirect. Some binding calls cover weakened binding; strength is not graded here.
Assays:
[1] = molecular target: Activating Molecule in Beclin 1-Regulated Autophagy (AMBRA1) (human (endogenous in HeLa)) (UniProt Q9C0C7); experiment: co-IP
[2] = molecular target: CDK4 (human (endogenous in HeLa, DAOY)) (UniProt P11802); experiment: proximity ligation

By UniProt entry, the sequences of proteins in these tests, tags left out.
UniProt Q9C0C7: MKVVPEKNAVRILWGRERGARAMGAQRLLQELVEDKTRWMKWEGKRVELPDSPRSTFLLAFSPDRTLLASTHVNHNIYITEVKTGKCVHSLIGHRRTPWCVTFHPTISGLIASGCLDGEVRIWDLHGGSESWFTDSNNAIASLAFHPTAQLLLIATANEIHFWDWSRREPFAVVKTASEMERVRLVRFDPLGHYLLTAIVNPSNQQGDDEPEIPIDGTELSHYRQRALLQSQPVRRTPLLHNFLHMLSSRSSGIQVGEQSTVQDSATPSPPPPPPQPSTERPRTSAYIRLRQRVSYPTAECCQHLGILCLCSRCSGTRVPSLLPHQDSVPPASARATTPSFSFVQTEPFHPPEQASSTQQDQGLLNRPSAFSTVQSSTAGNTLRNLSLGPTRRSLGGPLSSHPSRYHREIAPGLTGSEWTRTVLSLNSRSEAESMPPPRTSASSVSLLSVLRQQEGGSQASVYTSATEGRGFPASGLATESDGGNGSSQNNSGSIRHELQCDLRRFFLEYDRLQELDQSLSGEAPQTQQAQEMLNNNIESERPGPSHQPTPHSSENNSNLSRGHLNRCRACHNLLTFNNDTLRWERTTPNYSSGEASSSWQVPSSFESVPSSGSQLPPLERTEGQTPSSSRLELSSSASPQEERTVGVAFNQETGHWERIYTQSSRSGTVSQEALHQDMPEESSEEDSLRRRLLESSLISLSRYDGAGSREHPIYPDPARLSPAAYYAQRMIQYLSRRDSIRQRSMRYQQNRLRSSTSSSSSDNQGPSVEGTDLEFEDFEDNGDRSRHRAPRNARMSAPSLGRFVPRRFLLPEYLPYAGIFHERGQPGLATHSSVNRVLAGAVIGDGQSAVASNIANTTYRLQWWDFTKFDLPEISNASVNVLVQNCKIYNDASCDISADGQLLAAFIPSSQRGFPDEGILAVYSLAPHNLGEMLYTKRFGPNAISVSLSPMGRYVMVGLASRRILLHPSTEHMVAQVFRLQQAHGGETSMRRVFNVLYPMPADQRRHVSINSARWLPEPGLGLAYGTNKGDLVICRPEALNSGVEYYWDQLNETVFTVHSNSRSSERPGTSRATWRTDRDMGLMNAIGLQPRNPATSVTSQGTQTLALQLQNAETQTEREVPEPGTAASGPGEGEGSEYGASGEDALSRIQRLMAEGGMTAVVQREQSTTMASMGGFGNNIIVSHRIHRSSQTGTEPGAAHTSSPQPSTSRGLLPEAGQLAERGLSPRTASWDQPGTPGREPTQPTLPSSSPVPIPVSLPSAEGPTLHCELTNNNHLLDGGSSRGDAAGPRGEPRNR
UniProt P11802: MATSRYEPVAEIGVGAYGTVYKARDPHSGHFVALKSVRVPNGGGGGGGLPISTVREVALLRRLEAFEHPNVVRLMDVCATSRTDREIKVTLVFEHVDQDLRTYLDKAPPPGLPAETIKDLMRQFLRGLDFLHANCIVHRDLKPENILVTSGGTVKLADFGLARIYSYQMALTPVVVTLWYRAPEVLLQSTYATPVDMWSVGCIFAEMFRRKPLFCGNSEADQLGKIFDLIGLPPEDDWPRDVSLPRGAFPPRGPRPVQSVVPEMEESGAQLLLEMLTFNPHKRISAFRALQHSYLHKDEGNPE
UniProt P38936: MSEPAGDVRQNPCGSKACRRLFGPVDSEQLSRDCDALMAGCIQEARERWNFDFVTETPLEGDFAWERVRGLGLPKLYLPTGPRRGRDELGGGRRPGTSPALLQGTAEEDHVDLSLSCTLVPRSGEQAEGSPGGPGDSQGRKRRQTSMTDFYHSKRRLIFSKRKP
UniProt P46527: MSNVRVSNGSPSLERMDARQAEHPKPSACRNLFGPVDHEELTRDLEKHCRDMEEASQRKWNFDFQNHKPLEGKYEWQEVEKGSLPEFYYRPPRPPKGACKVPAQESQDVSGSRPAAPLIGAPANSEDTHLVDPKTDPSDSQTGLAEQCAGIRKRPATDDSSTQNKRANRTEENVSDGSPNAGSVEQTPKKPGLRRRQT

Row | Substance | binding [1] | binding [2]
1 | p21^Waf1/Cip1 (from UniProt P38936 1-164) | binds | 
2 | p27^Kip1 (from UniProt P46527 1-198) |  | binds
3 | p27^Kip1 (from UniProt P46527 1-198) (other; other documents disagree on this pair) | binds | 

Reference: doi:10.1101/2025.07.28.666126
